This is an account of results in publication PMC8759595.

The target in assay [1] is T1, FLAG-ACBD4 (UniProt Q8NC06).
T1 sequence: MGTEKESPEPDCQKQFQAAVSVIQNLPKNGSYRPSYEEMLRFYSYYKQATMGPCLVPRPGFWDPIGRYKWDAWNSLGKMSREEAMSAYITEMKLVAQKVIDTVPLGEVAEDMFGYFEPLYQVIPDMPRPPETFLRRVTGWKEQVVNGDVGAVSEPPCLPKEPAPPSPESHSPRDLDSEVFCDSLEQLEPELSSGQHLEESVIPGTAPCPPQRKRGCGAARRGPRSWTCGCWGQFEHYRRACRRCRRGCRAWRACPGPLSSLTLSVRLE
As to the kind of experiment: co-IP; FLAG-ACBD4/5 constructs in COS-7 lysates not treated with λPP, precipitated with anti-FLAG M2 affinity gel 1 h at 4°C, eluted with 3x FLAG peptide; endogenous VAPB by immunoblot (Figs. 1 E and S1 A). A general note: A western blot detects proteins with antibodies after separation by electrophoresis.

For assay [2], the target named is T2, FLAG-ACBD5 (COS-7) (UniProt Q5T8D3).
T2 sequence: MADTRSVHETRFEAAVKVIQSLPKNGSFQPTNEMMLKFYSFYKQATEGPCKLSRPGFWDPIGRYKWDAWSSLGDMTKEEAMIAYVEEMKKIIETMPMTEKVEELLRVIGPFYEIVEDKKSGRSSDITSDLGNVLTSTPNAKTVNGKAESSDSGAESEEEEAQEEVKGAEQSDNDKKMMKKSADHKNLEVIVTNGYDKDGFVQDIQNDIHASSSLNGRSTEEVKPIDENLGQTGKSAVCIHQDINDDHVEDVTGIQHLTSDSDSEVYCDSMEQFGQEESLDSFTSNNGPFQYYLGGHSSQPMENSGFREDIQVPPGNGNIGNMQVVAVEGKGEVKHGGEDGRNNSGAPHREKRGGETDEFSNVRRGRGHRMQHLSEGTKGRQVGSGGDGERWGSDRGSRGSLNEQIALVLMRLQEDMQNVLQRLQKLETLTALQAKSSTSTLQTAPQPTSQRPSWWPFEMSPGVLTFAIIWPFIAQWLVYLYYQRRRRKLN
The assay is described as above.

In assay [3] the target is T3, FLAG-ACBD4 S183E (UniProt Q8NC06).
T3 sequence: T1 sequence with S183E
As to the kind of experiment: co-IP; FLAG-ACBD4, FLAG-ACBD5 or FLAG-VAPB constructs in COS-7 lysates (50 mM Tris-HCl pH 7.4, 150 mM NaCl, 1 mM EDTA, 1% Triton X-100, phosphatase inhibitor), anti-FLAG M2 affinity gel; immunoblot; GSK3β coexpressed in Fig. 6 (Figs. S3 B and C, 6 A-C).

Assay [4] concerns the target T1, FLAG-ACBD4. Described as above.
Assay [5] addresses T4, Myc-ACBD5 S263A (UniProt Q5T8D3).
T4 sequence: T2 sequence with S263A
As to the kind of experiment: co-IP; Myc-ACBD5 constructs or Myc-VAPB in COS-7 lysates (10 mM Tris-HCl pH 7.4, 150 mM NaCl, 0.5 mM EDTA, 0.5% NP-40, phosphatase inhibitor), Myc-TRAP magnetic agarose beads 1 h at 4°C; immunoblot; in some panels GSK3β WT or K85A coexpressed (Figs. 2 C, 3 A, 5 A, 7 A, S1 C, S4 B).

The target of assay [6] is T5, Myc-ACBD5 S259A (UniProt Q5T8D3).
T5 sequence: T2 sequence with S259A
The assay is described as above.

Positions count from the first letter of the chain named. These are yes or no findings as the source states them, for the method shown. In cells and extracts the contact can be indirect. For part of these data: A result given as binding can be weak or reduced; the word gives no strength. Sequences can lack the tags named with a protein.

With endogenous VAPB (COS-7 cells), the binding result in assay [1] is listed as “binds”; in assay [2], “binds”; in assay [3] it was “no binding”; in assay [4] it was “binds”; in assay [5], “binds”; in assay [6], “binds”.
